For the experiment, the target named is Human IL-6 (human) (UniProt P05231). The experiment can be described thus: bio-layer interferometry (Octet QK), antibody on anti-human IgG1 Fc sensor.

Sequences of proteins named here, by UniProt entry; tags and fusion partners are left off. A change or cut given only in a name is not applied to a line headed by its entry.
UniProt P05231: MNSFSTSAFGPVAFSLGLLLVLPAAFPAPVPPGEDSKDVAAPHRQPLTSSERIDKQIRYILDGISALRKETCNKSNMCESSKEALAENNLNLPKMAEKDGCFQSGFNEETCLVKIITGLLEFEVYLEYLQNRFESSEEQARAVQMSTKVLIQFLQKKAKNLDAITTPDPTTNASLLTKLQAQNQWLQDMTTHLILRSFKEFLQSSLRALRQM

Changes are numbered by the printed parent chain. No constants are given. Whether binding was seen depends on the method and setting. Some entries that bind do so weakly or less than the wild type.

B1: Ab2 (antibody, V domains shown)
VH: QEQLKESGGRLVTPGTPLTLTCTASGFSLNDHAMGWVRQAPGKGLEYIGFINSGGSARYASWAEGRFTISRTSTTVDLKMTSLTTEDTATYFCVRGGAVWSIHSFDPWGPGTLVTVSS
VL: AYDMTQTPASVEVAVGGTVTINCQASETIYSWLSWYQQKPGQPPKLLIYQASDLASGVPSRFSGSGAGTEYTLTISGVQCDDAATYYCQQGYSGSNVDNVFGGGTEVVVKR
For B1, the binding entry is “binds”.

B2: Ab7 (antibody, V domains shown)
VH: QSLEESGGRLVTPGTPLTLTCTASGFSLSNYYMTWVRQAPGKGLEWIGMIYGSDETAYANWAIGRFTISKTSTTVDLKMTSLTAADTATYFCARDDSSDWDAKFNLWGQGTLVTVSS
VL: AYDMTQTPASVSAAVGGTVTIKCQASQSINNELSWYQQKSGQRPKLLIYRASTLASGVSSRFKGSGSGTEFTLTISDLECADAATYYCQQGYSLRNIDNAFGGGTEVVVKR
Turning to B2, the binding result is given as “binds”.

B3: Ab6 (antibody, V domains shown)
VH: QSVEESGGRLVTPGTPLTLTCTVSGIDLSDYAMSWVRQAPGKGLEWIGIIYAGSGSTWYASWAKGRFTISKTSTTVDLKITSPTTEDTATYFCARDGYDDYGDFDRLDLWGPGTLVTVSS
VL: AAVLTQTPSPVSVPVGGTVTIKCQSSQSVYNNFLSWYQQKPGQPPKLLIYQASKLASGVPDRFSGSGSGTQFTLTISGVQCDDAATYYCLGGYDDDADNAFGGGTEVVVKR
In the case of B3, the binding result is on record as “binds”.

B4: Ab3 (antibody, V domains shown)
VH: QSLEESGGRLVTPGTPLTLTCTASGFSLSVYYMNWVRQAPGKGLEWIGFITMSDNINYASWAKGRFTISKTSTTVDLKMTSPTTEDTATYFCARSRGWGTMGRLDLWGPGTLVTVSS
VL: AAVLTQTPSPVSAAVGGTVSISCQASQSVYDNNYLSWFQQKPGQPPKLLIYGASTLASGVPSRFVGSGSGTQFTLTITDVQCDDAATYYCAGVYDDDSDNAFGGGTEVVVKR
Turning to B4, the binding result is on record as “binds”.

B5: Ab4 (antibody, V domains shown)
VH: QEQLKESGGGLVTPGGTLTLTCTASGFSLNAYYMNWVRQAPGKGLEWIGFITLNNNVAYANWAKGRFTFSKTSTTVDLKMTSPTPEDTATYFCARSRGWGAMGRLDLWGHGTLVTVSS
VL: B4 VL with A1D, A2P, A14P, D31E, A57D, V65K, N100D
With B5, the binding entry was “binds”.

The values are drawn from patent US20210332126A1.
